Measured values reported in PMC9839743.

Chains of the proteins cited; added tags and fusions are not shown.
UniProt O75884: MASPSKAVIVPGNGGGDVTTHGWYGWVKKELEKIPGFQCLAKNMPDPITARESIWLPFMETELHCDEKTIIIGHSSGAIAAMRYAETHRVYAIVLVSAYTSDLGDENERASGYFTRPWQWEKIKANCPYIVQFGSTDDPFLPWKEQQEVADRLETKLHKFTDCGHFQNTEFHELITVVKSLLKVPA
UniProt P62318: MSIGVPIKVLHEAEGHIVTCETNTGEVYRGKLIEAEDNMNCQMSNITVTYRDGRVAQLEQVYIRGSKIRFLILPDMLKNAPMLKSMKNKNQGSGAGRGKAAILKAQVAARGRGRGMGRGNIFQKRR
UniProt O94762: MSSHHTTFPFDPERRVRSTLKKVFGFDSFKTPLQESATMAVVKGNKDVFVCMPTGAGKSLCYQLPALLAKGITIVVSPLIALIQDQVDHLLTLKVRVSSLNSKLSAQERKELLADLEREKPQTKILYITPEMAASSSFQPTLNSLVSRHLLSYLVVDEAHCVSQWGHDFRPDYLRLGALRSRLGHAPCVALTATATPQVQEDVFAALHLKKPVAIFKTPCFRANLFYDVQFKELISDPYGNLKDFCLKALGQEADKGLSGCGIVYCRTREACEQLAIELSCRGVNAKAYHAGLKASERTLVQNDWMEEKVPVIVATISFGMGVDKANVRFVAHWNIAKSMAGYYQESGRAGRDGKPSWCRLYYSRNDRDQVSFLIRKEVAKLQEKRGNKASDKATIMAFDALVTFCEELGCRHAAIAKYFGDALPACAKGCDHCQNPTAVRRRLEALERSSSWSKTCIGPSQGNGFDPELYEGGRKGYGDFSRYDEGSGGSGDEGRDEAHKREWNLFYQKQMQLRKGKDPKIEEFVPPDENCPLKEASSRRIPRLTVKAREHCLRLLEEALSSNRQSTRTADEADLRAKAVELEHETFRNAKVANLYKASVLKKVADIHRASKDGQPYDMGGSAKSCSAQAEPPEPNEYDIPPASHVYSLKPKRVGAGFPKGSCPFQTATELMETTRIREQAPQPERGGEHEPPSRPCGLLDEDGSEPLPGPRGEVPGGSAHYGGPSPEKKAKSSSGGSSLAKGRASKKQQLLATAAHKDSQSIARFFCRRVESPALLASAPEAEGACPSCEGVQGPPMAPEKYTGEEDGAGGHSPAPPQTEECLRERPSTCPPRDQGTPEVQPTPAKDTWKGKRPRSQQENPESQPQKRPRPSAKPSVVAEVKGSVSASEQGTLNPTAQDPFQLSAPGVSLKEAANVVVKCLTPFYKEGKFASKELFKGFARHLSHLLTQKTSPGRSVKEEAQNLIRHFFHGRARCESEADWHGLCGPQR
UniProt Q5UIP0: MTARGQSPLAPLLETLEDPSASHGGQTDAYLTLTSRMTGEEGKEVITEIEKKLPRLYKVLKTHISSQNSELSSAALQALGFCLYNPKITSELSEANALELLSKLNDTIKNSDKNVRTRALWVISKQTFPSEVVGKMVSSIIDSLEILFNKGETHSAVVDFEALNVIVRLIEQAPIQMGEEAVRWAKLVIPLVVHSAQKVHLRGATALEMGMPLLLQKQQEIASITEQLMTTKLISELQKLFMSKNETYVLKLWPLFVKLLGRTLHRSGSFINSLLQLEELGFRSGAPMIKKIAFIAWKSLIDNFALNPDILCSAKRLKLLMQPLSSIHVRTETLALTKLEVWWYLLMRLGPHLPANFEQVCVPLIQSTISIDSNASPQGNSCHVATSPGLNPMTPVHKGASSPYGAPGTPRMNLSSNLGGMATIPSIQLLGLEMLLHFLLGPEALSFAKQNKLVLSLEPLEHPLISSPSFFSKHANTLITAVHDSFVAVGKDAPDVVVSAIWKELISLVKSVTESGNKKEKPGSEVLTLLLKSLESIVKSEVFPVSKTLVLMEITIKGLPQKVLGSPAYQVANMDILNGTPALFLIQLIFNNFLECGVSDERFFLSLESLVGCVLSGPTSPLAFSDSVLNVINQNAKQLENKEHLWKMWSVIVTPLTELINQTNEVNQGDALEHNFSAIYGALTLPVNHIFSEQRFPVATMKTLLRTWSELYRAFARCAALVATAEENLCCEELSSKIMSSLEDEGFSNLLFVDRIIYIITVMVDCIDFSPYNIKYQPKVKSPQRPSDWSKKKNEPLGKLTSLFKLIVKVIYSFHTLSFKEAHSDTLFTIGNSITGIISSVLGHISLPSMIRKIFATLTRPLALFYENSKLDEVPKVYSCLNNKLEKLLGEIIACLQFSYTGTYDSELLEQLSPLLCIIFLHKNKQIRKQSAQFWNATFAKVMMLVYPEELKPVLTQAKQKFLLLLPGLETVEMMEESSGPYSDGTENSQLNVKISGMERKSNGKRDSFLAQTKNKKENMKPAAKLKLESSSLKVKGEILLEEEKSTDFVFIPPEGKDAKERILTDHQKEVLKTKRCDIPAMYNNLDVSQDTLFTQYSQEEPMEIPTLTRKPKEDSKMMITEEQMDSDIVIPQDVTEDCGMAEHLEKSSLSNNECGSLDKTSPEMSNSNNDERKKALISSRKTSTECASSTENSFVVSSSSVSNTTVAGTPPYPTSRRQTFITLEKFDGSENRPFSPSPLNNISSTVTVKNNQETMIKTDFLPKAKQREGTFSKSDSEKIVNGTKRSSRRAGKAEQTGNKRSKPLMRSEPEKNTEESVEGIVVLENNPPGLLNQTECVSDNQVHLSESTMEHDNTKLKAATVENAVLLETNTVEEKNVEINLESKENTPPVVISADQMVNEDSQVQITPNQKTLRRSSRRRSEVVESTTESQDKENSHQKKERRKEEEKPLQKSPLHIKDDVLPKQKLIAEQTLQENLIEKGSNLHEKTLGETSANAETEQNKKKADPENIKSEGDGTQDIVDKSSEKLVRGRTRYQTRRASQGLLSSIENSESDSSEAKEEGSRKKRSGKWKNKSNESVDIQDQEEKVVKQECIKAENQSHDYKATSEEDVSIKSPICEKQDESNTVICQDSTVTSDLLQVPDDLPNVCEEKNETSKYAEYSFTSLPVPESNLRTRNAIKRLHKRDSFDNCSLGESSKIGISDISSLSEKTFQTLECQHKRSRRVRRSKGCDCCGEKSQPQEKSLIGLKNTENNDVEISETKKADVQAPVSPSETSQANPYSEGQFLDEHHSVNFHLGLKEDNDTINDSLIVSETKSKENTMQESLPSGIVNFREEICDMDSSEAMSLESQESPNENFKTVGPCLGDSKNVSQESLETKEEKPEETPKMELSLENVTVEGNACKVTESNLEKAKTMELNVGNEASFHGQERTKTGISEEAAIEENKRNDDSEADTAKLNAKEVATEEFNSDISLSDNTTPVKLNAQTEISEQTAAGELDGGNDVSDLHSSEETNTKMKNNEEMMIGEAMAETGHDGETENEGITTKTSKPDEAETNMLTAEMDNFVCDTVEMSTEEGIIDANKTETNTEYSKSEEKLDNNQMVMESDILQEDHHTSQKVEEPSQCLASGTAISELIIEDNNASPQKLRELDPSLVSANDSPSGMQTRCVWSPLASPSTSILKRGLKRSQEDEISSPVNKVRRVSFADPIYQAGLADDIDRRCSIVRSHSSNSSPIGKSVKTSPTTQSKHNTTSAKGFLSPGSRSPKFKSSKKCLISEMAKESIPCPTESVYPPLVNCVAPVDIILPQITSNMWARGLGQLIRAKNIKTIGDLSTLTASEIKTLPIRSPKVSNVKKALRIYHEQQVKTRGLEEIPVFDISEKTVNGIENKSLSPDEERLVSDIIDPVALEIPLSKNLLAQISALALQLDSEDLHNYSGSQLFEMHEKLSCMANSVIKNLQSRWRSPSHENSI

B1: MCM5 (protein, UniProt P33992 1-734)
chain: MSGFDDPGIFYSDSFGGDAQADEGQARKSQLQRRFKEFLRQYRVGTDRTGFTFKYRDELKRHYNLGEYWIEVEMEDLASFDEDLADYLYKQPAEHLQLLEEAAKEVADEVTRPRPSGEEVLQDIQVMLKSDASPSSIRSLKSDMMSHLVKIPGIIIAASAVRAKATRISIQCRSCRNTLTNIAMRPGLEGYALPRKCNTDQAGRPKCPLDPYFIMPDKCKCVDFQTLKLQELPDAVPHGEMPRHMQLYCDRYLCDKVVPGNRVTIMGIYSIKKFGLTTSRGRDRVGVGIRSSYIRVLGIQVDTDGSGRSFAGAVSPQEEEEFRRLAALPNVYEVISKSIAPSIFGGTDMKKAIACLLFGGSRKRLPDGLTRRGDINLLMLGDPGTAKSQLLKFVEKCSPIGVYTSGKGSSAAGLTASVMRDPSSRNFIMEGGAMVLADGGVVCIDEFDKMREDDRVAIHEAMEQQTISIAKAGITTTLNSRCSVLAAANSVFGRWDETKGEDNIDFMPTILSRFDMIFIVKDEHNEERDVMLAKHVITLHVSALTQTQAVEGEIDLAKLKKFIAYCRVKCGPRLSAEAAEKLKNRYIIMRSGARQHERDSDRRSSIPITVRQLEAIVRIAEALSKMKLQPFATEADVEEALRLFQVSTLDAALSGTLSGVEGFTSQEDQEMLSRIEKQLKRRFAIGSQVSEHSIIKDFTKQKYPEHAIHKVLQLMLRRGEIQHRMQRKVLYRLK

The molecules below were run against retinoblastoma binding protein 9 (RBBP9), FLAG-tagged (human) (UniProt O75884) (assay: affinity purification with mass spectrometry; RBBP9-FLAG overexpressed in HEK293T for 48 h; cleared lysate (1% Nonidet P-40 substitute, 10% glycerol, 50 mM MgCl2, 200 mM NaCl) on anti-FLAG M2 beads overnight at 4 °C; eluted with 3x FLAG peptide; GeLC-MS/MS with spectral counting; FLAG-FANCC co-IP as control).

binding	Molecule
binds	SNRPD3 (from UniProt P62318 1-126)
binds	RECQL5 (from UniProt O94762 1-991)
binds	RIF1 (from UniProt Q5UIP0 1-2472)
binds	B1

Results are given in words; binding and its absence hold for the method and conditions named. Binding seen in cells or lysates may run through a third protein. These calls come from enrichment with a bait or labelling near it, and not all partners need be listed.
